Source: the supplement of paper PMC12823440, “Inhibitors supercharge kinase turnover through native proteolytic circuits” (Nature, 2025)
This is one part of the list. The calls rarely recur for the same compound in another form.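 Kinases were expressed as nanoluciferase fusions in K562 cells and luminescence was read every 4 h between 2 and 18 h as percent of control, DMSO set to 100% and a positive control to 0%. A time point counts as decreased when the signal drops significantly (2 sigma). The hit call is the authors' own, does not follow from the count of time points alone, and its rule is not shown.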

Chains of the proteins cited; added tags and fusions are not shown. Lines headed by an entry give the natural chain unless they say otherwise; changes in a name come on top.
UniProt P06241, whole entry, looked up: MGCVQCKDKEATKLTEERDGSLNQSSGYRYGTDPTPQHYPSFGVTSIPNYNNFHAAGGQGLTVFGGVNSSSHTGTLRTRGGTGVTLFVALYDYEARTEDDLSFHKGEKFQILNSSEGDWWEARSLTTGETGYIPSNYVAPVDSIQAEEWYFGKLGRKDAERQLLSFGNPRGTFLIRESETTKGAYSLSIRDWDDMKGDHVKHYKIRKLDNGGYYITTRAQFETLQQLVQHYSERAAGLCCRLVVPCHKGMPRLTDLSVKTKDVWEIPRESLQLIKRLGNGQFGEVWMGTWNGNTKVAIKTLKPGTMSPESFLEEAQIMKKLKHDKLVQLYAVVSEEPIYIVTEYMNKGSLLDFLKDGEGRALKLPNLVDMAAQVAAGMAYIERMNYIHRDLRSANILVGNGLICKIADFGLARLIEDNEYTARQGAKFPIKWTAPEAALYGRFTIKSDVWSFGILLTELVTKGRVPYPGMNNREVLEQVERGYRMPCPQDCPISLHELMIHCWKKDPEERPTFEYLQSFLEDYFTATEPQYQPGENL
UniProt P49840: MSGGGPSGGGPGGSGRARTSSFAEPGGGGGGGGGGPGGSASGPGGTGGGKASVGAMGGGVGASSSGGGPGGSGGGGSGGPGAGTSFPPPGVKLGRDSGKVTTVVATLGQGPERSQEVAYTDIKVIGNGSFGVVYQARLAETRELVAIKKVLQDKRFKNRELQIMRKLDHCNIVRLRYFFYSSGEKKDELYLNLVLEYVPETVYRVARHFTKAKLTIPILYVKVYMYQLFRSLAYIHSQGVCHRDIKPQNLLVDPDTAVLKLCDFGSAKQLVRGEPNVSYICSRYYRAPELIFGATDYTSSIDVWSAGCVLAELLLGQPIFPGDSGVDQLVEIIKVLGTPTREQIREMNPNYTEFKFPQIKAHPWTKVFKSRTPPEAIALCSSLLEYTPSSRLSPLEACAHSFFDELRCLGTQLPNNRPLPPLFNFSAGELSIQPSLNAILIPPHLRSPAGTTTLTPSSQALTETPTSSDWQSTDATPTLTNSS
UniProt P14616: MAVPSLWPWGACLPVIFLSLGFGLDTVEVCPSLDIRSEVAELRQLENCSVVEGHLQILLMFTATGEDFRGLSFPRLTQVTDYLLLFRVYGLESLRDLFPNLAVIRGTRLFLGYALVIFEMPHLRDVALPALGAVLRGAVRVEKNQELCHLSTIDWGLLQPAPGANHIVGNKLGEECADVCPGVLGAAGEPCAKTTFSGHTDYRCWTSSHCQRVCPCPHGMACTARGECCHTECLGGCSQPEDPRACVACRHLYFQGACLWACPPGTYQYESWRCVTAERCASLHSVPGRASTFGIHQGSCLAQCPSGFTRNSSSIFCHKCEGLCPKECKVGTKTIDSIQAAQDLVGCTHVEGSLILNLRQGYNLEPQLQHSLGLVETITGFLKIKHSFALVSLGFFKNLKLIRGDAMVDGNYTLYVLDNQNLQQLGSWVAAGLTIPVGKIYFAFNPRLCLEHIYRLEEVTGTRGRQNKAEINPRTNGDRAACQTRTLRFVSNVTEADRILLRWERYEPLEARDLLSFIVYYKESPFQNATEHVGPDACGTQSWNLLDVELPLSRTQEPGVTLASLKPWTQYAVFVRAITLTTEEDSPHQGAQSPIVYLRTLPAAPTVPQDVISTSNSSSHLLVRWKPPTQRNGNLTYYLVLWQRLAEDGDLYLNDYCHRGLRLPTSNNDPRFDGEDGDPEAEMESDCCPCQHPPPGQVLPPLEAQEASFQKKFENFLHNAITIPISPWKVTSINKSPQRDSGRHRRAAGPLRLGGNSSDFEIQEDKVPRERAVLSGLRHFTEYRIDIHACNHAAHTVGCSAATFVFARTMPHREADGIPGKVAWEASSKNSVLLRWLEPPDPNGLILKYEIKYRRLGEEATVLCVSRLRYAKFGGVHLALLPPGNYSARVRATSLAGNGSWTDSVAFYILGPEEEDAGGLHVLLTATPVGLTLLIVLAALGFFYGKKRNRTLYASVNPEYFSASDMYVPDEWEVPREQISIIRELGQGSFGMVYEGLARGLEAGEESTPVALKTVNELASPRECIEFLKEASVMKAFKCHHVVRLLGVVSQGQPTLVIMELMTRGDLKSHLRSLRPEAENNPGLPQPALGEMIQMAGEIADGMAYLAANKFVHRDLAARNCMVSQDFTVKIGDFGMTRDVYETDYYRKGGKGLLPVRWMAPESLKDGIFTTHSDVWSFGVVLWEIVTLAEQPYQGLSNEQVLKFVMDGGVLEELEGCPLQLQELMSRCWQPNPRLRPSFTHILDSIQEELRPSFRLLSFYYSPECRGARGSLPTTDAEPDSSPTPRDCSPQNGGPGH
UniProt P53667: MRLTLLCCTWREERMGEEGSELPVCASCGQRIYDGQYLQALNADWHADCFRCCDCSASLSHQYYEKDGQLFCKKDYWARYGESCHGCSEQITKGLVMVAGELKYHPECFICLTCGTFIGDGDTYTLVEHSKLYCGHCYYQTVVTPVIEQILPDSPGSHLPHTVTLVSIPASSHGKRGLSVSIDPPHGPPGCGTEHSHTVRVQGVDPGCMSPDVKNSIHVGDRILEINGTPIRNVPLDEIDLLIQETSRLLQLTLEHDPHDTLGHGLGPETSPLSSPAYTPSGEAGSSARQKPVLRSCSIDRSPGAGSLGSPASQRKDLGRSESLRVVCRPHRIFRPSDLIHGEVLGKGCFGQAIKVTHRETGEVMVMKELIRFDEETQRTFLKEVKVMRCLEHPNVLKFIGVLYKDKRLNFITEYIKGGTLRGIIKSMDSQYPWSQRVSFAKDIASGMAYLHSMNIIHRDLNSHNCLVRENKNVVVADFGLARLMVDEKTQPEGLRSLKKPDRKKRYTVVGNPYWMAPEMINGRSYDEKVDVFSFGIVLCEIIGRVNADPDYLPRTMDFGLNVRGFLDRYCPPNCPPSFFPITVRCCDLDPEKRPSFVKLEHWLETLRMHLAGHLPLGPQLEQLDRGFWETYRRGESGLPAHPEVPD
UniProt P53671: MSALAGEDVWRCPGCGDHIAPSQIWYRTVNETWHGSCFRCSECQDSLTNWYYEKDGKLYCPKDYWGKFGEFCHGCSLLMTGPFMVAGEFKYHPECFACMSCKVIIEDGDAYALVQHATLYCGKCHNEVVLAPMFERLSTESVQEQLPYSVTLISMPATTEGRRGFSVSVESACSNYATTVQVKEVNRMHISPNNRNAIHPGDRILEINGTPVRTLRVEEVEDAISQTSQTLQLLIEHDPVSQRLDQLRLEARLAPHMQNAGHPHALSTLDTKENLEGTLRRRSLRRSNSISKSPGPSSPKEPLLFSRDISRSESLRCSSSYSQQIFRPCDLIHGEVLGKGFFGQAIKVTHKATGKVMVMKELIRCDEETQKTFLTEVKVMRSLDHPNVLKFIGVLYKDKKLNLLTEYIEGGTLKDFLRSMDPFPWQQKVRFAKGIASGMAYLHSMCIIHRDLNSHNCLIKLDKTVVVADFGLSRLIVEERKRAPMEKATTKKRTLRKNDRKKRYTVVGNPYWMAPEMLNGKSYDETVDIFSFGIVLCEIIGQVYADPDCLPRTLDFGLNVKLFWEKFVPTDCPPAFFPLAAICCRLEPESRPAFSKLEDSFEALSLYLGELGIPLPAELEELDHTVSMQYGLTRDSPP
UniProt P07948: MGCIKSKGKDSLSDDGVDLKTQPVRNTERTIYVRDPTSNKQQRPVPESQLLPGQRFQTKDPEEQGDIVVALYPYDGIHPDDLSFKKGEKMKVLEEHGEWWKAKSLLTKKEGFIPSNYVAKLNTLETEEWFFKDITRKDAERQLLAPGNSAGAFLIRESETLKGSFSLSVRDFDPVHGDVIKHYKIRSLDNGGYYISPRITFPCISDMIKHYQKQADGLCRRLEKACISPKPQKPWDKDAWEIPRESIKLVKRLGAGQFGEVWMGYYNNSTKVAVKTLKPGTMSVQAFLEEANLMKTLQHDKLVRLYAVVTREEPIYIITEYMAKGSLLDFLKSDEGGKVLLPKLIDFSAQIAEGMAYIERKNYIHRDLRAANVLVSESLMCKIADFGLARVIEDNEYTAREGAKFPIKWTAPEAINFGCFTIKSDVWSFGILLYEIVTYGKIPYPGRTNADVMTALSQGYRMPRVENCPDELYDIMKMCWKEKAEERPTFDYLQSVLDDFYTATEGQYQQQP
UniProt Q12851: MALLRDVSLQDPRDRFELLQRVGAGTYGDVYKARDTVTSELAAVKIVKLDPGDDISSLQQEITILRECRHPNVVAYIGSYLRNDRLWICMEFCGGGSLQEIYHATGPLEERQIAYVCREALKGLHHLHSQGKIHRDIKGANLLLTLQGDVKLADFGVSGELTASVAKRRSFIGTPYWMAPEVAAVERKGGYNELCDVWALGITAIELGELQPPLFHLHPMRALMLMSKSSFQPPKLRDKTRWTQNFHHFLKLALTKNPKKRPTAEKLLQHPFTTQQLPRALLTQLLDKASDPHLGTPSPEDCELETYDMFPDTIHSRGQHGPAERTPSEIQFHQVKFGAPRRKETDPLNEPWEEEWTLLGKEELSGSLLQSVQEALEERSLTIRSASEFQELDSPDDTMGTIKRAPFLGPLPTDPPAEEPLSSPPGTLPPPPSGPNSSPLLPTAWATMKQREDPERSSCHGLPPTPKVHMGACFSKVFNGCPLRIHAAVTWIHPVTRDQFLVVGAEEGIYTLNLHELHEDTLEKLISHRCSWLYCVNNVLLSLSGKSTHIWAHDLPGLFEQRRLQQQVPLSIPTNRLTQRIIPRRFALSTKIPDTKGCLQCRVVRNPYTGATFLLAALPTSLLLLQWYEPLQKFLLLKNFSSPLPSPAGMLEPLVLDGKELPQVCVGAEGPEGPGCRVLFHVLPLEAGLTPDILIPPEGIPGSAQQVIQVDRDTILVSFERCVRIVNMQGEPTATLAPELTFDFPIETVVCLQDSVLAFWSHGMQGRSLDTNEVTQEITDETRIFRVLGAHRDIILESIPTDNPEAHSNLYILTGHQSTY
UniProt P28482, whole entry: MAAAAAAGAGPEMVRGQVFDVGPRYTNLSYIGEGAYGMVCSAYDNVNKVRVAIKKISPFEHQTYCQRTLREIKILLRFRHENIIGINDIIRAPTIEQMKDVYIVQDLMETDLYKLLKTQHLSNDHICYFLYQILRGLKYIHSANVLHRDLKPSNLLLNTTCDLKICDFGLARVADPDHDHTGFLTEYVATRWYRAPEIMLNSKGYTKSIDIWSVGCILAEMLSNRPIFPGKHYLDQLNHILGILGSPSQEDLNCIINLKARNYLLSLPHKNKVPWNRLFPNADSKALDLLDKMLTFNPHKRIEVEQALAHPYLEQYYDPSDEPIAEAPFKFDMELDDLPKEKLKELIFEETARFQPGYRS
UniProt Q9BUB5: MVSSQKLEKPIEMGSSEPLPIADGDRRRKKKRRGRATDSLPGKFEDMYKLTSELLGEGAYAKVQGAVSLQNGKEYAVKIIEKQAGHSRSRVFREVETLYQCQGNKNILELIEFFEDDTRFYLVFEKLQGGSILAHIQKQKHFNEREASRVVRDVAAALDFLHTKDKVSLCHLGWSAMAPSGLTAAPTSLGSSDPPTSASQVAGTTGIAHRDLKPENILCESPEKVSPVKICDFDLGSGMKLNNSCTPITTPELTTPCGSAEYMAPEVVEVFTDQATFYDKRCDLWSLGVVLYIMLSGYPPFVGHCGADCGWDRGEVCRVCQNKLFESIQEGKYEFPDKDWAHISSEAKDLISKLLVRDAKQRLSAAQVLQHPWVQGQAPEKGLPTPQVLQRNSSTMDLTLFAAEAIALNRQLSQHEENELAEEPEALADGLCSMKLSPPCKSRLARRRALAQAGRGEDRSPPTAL
UniProt Q16620, whole entry, looked up: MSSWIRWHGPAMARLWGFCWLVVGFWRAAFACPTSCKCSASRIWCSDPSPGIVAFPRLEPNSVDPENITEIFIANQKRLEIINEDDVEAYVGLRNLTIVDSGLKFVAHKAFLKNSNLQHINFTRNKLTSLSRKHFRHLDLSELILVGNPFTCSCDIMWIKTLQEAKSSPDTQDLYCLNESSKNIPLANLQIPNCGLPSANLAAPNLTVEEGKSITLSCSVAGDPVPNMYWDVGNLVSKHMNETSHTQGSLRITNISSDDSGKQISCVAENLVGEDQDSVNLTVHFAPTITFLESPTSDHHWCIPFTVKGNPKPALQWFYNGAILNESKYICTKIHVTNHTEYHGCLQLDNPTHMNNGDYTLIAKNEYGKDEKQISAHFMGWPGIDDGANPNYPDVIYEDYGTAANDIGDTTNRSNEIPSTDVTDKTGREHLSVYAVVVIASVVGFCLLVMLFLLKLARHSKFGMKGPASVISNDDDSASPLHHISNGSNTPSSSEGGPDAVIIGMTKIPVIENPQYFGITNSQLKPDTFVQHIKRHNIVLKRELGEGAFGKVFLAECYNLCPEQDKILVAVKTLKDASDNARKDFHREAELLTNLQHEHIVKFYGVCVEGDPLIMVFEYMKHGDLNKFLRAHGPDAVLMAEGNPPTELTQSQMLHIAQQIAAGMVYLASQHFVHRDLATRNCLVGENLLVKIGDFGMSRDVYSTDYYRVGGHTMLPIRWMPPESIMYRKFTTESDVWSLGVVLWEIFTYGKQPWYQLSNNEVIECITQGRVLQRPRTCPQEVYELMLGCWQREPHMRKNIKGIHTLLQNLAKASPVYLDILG

How the values were obtained:
Assay in all cases: number of time points (of 5) at which kinase-Nluc abundance scored as decreased, DMSO-normalised (count); higher = more persistent destabilization
Settings in all cases: K562; 2-18 h
FLT3 = FLT3 (UniProt P36888)
FYN = FYN (UniProt P06241)
GSK3A = GSK3A (UniProt P49840)
HER2 = HER2 (UniProt P04626)
INSRR = INSRR (UniProt P14616)
IRAK3 = IRAK3 (UniProt Q9Y616)
JAK1 = JAK1 (UniProt P23458)
LCK = LCK (UniProt P06239)
LIMK1 = LIMK1 (UniProt P53667)
LIMK2 = LIMK2 (UniProt P53671)
LMTK2 = LMTK2 (UniProt Q8IWU2)
LYN = LYN (UniProt P07948)
MAP2K1 = MAP2K1 (UniProt Q02750)
MAP2K2 = MAP2K2 (UniProt P36507)
MAP4K2 = MAP4K2 (UniProt Q12851)
MAPK1 = MAPK1 (UniProt P28482)
MAPK4 = MAPK4 (UniProt P31152)
MAPKAPK2 = MAPKAPK2 (UniProt P49137)
MKNK1 = MKNK1 (UniProt Q9BUB5)
NTRK2 = NTRK2 (UniProt Q16620)

SMILES	number of time points (FLT3)	number of time points (FYN)	number of time points (GSK3A)	number of time points (HER2)	number of time points (INSRR)	number of time points (IRAK3)	number of time points (JAK1)	number of time points (LCK)	number of time points (LIMK1)	number of time points (LIMK2)	number of time points (LMTK2)	number of time points (LYN)	number of time points (MAP2K1)	number of time points (MAP2K2)	number of time points (MAP4K2)	number of time points (MAPK1)	number of time points (MAPK4)	number of time points (MAPKAPK2)	number of time points (MKNK1)	number of time points (NTRK2)
Cc1[nH]ncc1-c1cc2nc([C@H]3CC4CCN3CC4)[nH]c(=O)c2s1 [(R)-Simurosertib] (10 µM)	0	0	0	0	0	0	0	0	0	0	0	0	0	0	0	0	0	0	0	0
Cc1ccccc1-n1c(Cn2ncc3c(N)ncnc32)nc2cccc(C)c2c1=O (10 µM)	0	0	0	0	0	0	0	0	0	0	0	0	0	0	0	0	0	0	0	0
N#CC(C#N)=Cc1ccc([N+](=O)[O-])c(O)c1 (10 µM)	0	0	0	0	0	0	0	0	0	0	0	0	0	0	0	0	0	0	0	0
O=c1cc(O)c2ccccc2o1 [4-Hydroxycoumarin] (10 µM)	0	0	0	0	0	0	0	0	0	0	0	0	0	0	0	0	0	0	0	0
O=c1[nH]c2ccccc2n1C1CCN(CCCC(c2ccc(F)cc2)c2ccc(F)cc2)CC1 [Pimozide] (2.5 µM)	0	0	0	0	0	0	0	0	0	0	0	0	0	0	0	0	0	0	0	0
C[C@H]1CC[C@]2(NC1)O[C@H]1C[C@H]3[C@@H]4CC[C@H]5C[C@@H](O[C@@H]6O[C@H](CO)[C@H](O[C@@H]7O[C@H](CO)[C@@H](O)[C@H](O[C@@H]8OC[C@@H](O)[C@H](O)[C@H]8O)[C@H]7O[C@@H]7O[C@H](CO)[C@@H](O)[C@H](O)[C@H]7O)[C@H](O)[C@H]6O)CC[C@]5(C)[C@H]4CC[C@]3(C)[C@H]1[C@@H]2C [Tomatine] (2.5 µM)	4	4	0	0	0	0	0	0	0	5	2	3	0	0	0	0	0	0	0	0
COc1ccc2c(c1)[nH]c1c(C)nccc12 [Harmine] (10 µM)	0	0	0	0	0	0	0	0	0	0	0	0	0	0	0	0	0	0	0	0
Cn1cc(C2=C(c3cn(C4CCN(Cc5ccccn5)CC4)c4ccccc34)C(=O)NC2=O)c2ccccc21 [Enzastaurin] (10 µM)	0	0	0	0	0	0	0	0	0	0	0	0	0	0	0	0	0	0	0	0
O=[N+]([O-])/C=C/c1ccc2c(c1)OCO2 (2.5 µM)	0	0	0	0	0	0	0	0	0	0	0	0	0	0	0	0	0	0	0	0
O=C(O)c1sc2cc(Cl)ccc2c1Cl (10 µM)	0	0	0	0	0	0	0	0	0	0	0	0	0	0	0	0	0	0	0	0
C[C@@H]1CC[C@H]2[C@@H](C)C(=O)O[C@@H]3O[C@@]4(C)CC[C@@H]1[C@]32OO4 [Artemisinin] (10 µM)	0	0	0	0	0	0	0	0	0	0	0	0	0	0	0	0	0	0	0	0
